# Results published in PubChem BioAssay AID2685 (National Center for Advancing Translational Sciences (NCATS), 2010).
# This is one part of the list. Shown are side measurements of this screen, not its main read-out; they come without a call. The list favours compounds with an active or inconclusive main result. The note in brackets gives the kind of curve behind each potency; many fits are weak.
# Assay: qHTS Assay for Lipid Storage Modulators in Drosophila S3 Cells;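 on cell number change: cells counted by Cell Tracker Red CMTPX staining in the red channel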
# Details: BODIPY lipid droplet fluorescence, 18-24 h; for cell number change: measured here: cell count max response, cells fed with added oleic acid
# Procedure, shortened: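 Drosophila S3 cells loaded with oleic acid (400 uM, as added) and compounds at several concentrations; lipid droplets imaged by 488-nm laser-scanning cytometry, 500–530 nm intensity and object ratio to cell channel. Percent activity normalized to 20 uM Triacsin C.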
# [1] = measured here: lipid fluorescence (Fed channel) AC50, cells fed with added oleic acid
# [2] = measured here: cell number channel AC50, cells fed with added oleic acid
SMILES,cell number change [%],AC50 [1],AC50 [2]
COc1ccccc1N(C(=O)c1snc(C(N)=O)c1N)C(C(=O)NC1CCCCC1)c1cccc(OC)c1OC (stereo not drawn),5.56,"29.1 µM [falling, single point]",–
C=CCCN(Cc1ccccc1)S(=O)(=O)c1cc(Br)ccc1Br,–,"0.651 µM [falling, single point]",–
COCCNC(=S)N(c1ccccc1)C(C)C,-0.192,"0.562 µM [falling, full curve, poor fit]",–
CCN(CC)c1ccc(C(=O)N2CCN(Cc3ccccc3)CC2)cc1,30.8,–,"1.03 µM [rising, full curve, poor fit]"
Cn1cnc(S(=O)(=O)N2CCc3ccccc32)c1,–,"0.00517 µM [falling, full curve, poor fit]","0.0058 µM [rising, full curve, poor fit]"
CCOC(=O)c1ccc(N2C(=O)c3cccc4c(C(=O)O)ccc(c34)C2=O)cc1,8.8,"18.4 µM [rising, single point]",–
O=C(Nc1ccncc1)c1ccc2ncsc2c1,9.95,"0.146 µM [rising, full curve, poor fit]","0.0058 µM [rising, full curve, poor fit]"
CCCN1C(=O)C2(C(C(=O)c3ccc(C)o3)=C(O)C(=O)N2CCCN2CCOCC2)c2ccccc21 (stereo not drawn),-19.3,"4.11 µM [falling, single point]","0.164 µM [falling, full curve, poor fit]"
CC1(C)COC(/C=C/c2ccc([N+](=O)[O-])cc2)=N1,-12.8,–,–
Cn1nc(C(=O)OCC(=O)NC2CCS(=O)(=O)C2)c2ccccc2c1=O (stereo not drawn),–,"6.51 µM [falling, single point]",–
CC(C)c1ccc(CCNC(=O)c2cccc(S(=O)(=O)N3CCN(C)CC3)c2)cc1,1.76,"29.1 µM [falling, single point]",–
CCOC(=O)Cn1c(CN(Cc2ccccc2)Cc2ccccc2)nc2c1c(=O)n(C)c(=O)n2C,49.4,"4.11 µM [rising, single point]","29.1 µM [rising, single point]"
Cc1ccc(C(=O)NNC(=O)c2cccs2)cc1,-12.3,"0.103 µM [falling, partial curve, poor fit]",–
CC(=O)Nc1ccc(NC(=O)C(C)Oc2ccccc2C(=O)NCc2ccccc2)cc1 (stereo not drawn),-3.85,"0.58 µM [falling, full curve, poor fit]",–
COc1ccccc1OCC(O)CN1C(=O)NC(C)(C)C1=O (stereo not drawn),10.9,"2.06 µM [rising, single point]",–
O=C(Nc1ccc2c(c1)OCO2)c1ccc(Cl)s1,91.7,"1.64 µM [rising, full curve]","3.26 µM [rising, full curve]"
C[C@]12CC[C@H]3C(=CCc4cc(O)ccc43)[C@@H]1CCC2=O,-30.8,"0.291 µM [falling, full curve, poor fit]",–
Cc1cc(Br)cc(C)c1NC(=O)c1ccccc1[N+](=O)[O-],23.3,–,"6.51 µM [rising, single point]"
COc1ccccc1N1C(=O)c2ccc(C(=O)Nc3ccc(C(=O)O)cc3)cc2C1=O,23.4,–,"2.31 µM [rising, full curve, poor fit]"
Cc1ccc(-n2nc(C)c3c(C)c(CCC(=O)NCCCOC(C)C)c(C)nc32)cc1,17.6,–,–

SMILES,cell number change [%],AC50 [1],AC50 [2]
CCO/C(C)=C1/SC(=S)NC1=O,-26.1,"0.0058 µM [falling, full curve, poor fit]",–
CN(C)S(=O)(=O)c1ccc(C(=O)NCCSc2ccccc2)cc1,–,–,"0.461 µM [rising, partial curve, poor fit]"
CCOc1ccc(S(=O)(=O)NCCC(=O)Nc2ccncc2)cc1,43.3,"9.2 µM [rising, partial curve]","6.51 µM [rising, partial curve]"
O=C(CSc1nncn1-c1ccccc1F)NC1CCCCC1,-4.39,"5.8 µM [rising, partial curve]",–
CCOC(=O)c1cc(=O)n(Cc2ccccc2C)c2ccccc12,–,"5.8 µM [rising, single point]","4.11 µM [rising, single point]"
CC(=O)c1ccc(N2CCN(C(=O)c3cc(-c4ccncc4)nc4ccc(Cl)cc34)CC2)cc1,2.46,–,–
Cn1cc(CN2CCCC(C(=O)Nc3cccc(-c4cc5ccccc5[nH]4)c3)C2)cn1 (stereo not drawn),12.1,–,"0.58 µM [rising, full curve, poor fit]"
Nc1cccc2c1C(=O)N(C(=O)c1ccc(Cl)c(S(=O)(=O)N3CCCCCC3)c1)C2=O,–,"6.51 µM [falling, partial curve, poor fit]",–
O=C(Nc1cccnc1)C(Cc1ccccc1)n1cccc1 (stereo not drawn),8.05,"1.16 µM [rising, single point]",–
COc1cccc(OCC(O)CN2CCN(c3ccccn3)CC2)c1 (stereo not drawn),8.1,"4.61 µM [rising, full curve, poor fit]",–
N#Cc1c(Cl)cccc1-n1ccnc1,-11,"20.6 µM [falling, partial curve]",–
CN(C)c1ccc(-c2cc([C@H]3[C@@H]4C=CCC[C@@]4(C)C(=O)N3Cc3ccccc3)ccc2F)cc1,-17.3,"23.1 µM [falling, single point]",–
O=C(COC(=O)c1ccc(Cl)nc1)Nc1ccc(Cl)cc1,-0.402,–,–
COC(CNC(=O)C(=O)Nc1cc2c3c(c1)CC(=O)N3CCC2)OC,–,"23.1 µM [rising, single point]",–
CC1(C)C(=O)N(c2ccccc2F)C(=O)c2ccccc21,11.3,–,–
Cc1nn(-c2ccccc2)c(Cl)c1/C=C1\SC(=S)N(C)C1=O,16.2,"0.82 µM [rising, full curve]",–
CCCCN(CC)CCNC(=O)c1cc2c(-c3ccccc3F)nn(C)c2s1,90.3,–,"20.6 µM [rising, single point]"
CC(=O)Nc1ccc(S(=O)(=O)N2CCN=C2SCc2ccc(F)cc2)cc1,-39,–,"25.9 µM [falling, partial curve, poor fit]"
Cn1ccnc1SCC(=O)Nc1cccc(S(=O)(=O)N2CCCCCC2)c1,–,"0.092 µM [rising, full curve, poor fit]",–
CCC/C=N/NC(=O)c1ccc(F)cc1,-1.76,–,"0.231 µM [falling, single point]"

# Looked up above:
# Value for O=C(Nc1cccnc1)C(Cc1ccccc1)n1cccc1 (stereo not drawn) under AC50 [1]: 1.16 µM [rising, single point]
# Value for CC1(C)C(=O)N(c2ccccc2F)C(=O)c2ccccc21 under cell number change [%]: 11.3
# Value for CCC/C=N/NC(=O)c1ccc(F)cc1 under cell number change [%]: -1.76
# Value for CCOc1ccc(S(=O)(=O)NCCC(=O)Nc2ccncc2)cc1 under AC50 [2]: 6.51 µM [rising, partial curve]

# (list continues)

SMILES,cell number change [%],AC50 [1],AC50 [2]
O=Cc1s/c(=N\S(=O)(=O)c2ccccc2)n(CCCCl)c1Cl,-47.2,"29.1 µM [falling, single point]","32.6 µM [falling, single point]"
COCCCNC(=O)/C(C#N)=C/c1c(N2CCN(C)CC2)nc2c(C)cccn2c1=O,4.26,–,–
N#C/C(=C\c1ccc(C(=O)O)cc1)S(=O)(=O)c1cc(Br)ccc1Br,-38,"29.1 µM [falling, single point]","18.4 µM [falling, single point]"
COc1ccc(-c2nc(-c3ccccn3)ncc2S(C)(=O)=O)cc1,8.47,–,–
O=C(NC(=S)Nc1ccc(N2CCOCC2)cc1)c1cccc(Cl)c1,1.9,"6.51 µM [rising, single point]",–
COc1ccc(Br)cc1/C=N/NC(=O)c1cc(OC)c(OC)c(OC)c1,28.4,"5.8 µM [rising, full curve]","4.11 µM [rising, full curve, poor fit]"
O=[N+]([O-])c1ccc(N=Cc2c(O)ccc3ccccc23)cc1,-6.25,–,–
COc1ccc(Br)cc1/C=N/NC(=O)c1cccnc1,-14.7,"6.51 µM [falling, single point]",–
O=c1oc(-c2ccc(F)cc2)nc2ccsc12,-5.06,"20.6 µM [falling, partial curve]",–
Cc1ccc(S(=O)(=O)CCC(=O)Nc2cccc(S(=O)(=O)N3CCCCCC3)c2)cc1,-4.85,"0.0651 µM [rising, full curve, poor fit]",–
COc1cnn(-c2ccc(C)cc2)c(=O)c1Br,-36.9,–,"11.6 µM [falling, single point]"
COc1cc(S(=O)(=O)n2ccnc2)ccc1Br,-29.8,"11.6 µM [falling, partial curve, poor fit]",–
O=C1c2ccccc2C(=O)N1CCC#Cc1ccc2cc(CCO)oc(=O)c2c1,-34.9,"0.00461 µM [rising, full curve, poor fit]","29.1 µM [falling, single point]"
Cc1nn(-c2ccccc2)c(=O)c2ccccc12,-28.7,–,"0.103 µM [rising, full curve, poor fit]"
CCOC(=O)N1CCN(Cc2nc3c(c(=O)[nH]c(=O)n3C)n2Cc2cc(C)ccc2C)CC1,–,"0.461 µM [rising, partial curve, poor fit]","1.84 µM [rising, partial curve]"
CCOc1ccc2nc(Cl)c(C3CC(c4ccccc4)=NN3C(=O)c3ccco3)cc2c1 (stereo not drawn),-83.3,–,"0.146 µM [falling, full curve]"
O=C(Cn1cnc2sc(-c3ccccc3)cc2c1=O)NCCc1ccccc1,87.5,–,"23.1 µM [rising, single point]"
O=C(NCCCN1CCOCC1)c1ccc2c(=O)n(-c3ccc(F)c(Cl)c3)c(=S)[nH]c2c1,25,"20.6 µM [rising, partial curve, poor fit]",–
CCN(c1cccc(C)c1)S(=O)(=O)c1ccc2c(c1)NC(=O)CCS2,4.2,"29.1 µM [falling, single point]",–
